From PubChem BioAssay AID662 (National Center for Advancing Translational Sciences (NCATS), 2007) come the findings set out here.

By AC50 is commonly meant the concentration giving half of the maximal activity seen.

This is one part of the list. The main result of the screen is listed elsewhere. These columns were measured beside it and carry no call. The list favours compounds with an active or inconclusive main result. The note in brackets gives the kind of curve behind each potency; many fits are weak.

This test in a line: Cell signaling CRE-BLA (Fsk stim). The settings on record: CHO CRE-bla reporter (cAMP response element driving beta-lactamase), forskolin EC10, beta-lactamase ratio; measured here: 460 nm blue channel. A digest of the protocol: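 Reporter-gene assay: CHO cells with beta-lactamase behind cAMP responsive elements, co-treated with compound and EC10 NKH 477 for 3 hours at 37 degrees Celsius. Activity came from the 460/530 nm CCF4 emission ratio.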
Turning to `Cc1ccccc1-c1ccc2ncnc(NC3CC3)c2c1`, the concentration at half-maximal activity (AC50) is 6.31 µM [rising, partial curve].

As for `COc1cccc(Cn2c(=O)c(-c3ccc(F)cc3)nc3cncnc32)c1`, the AC50 was 12.6 µM [rising, single point].

Consider `CCC(C)NC(=O)CSc1nc2n[nH]c(C)c2c(=N)n1-c1ccc(OC)cc1` (centres undefined), for which the half-maximal activity concentration (AC50) was 10 µM [rising, single point].

On to `Cc1cc2c(N=O)c(NO)ccc2[nH]1`, for which the concentration at half-maximal activity (AC50) was 12.6 µM [falling, partial curve].

As to `CC(=O)Nc1cc(OC(C)=O)c2nonc2c1OC(C)=O`, the AC50 is 6.31 µM [falling, partial curve].

As for `Cc1ccc(CCC(=O)Nc2nccs2)o1`, the concentration at half-maximal activity (AC50) is 0.00316 µM [falling, full curve, poor fit].

Regarding `Cc1cc(C(=O)OCn2nnc3ccccc3c2=O)c(C)n1-c1ccccc1`, the concentration at half-maximal activity (AC50) is 3.98 µM [rising, single point].

As to `CCOC(=O)Nc1ccc2ncn(C)c(=O)c2c1`, the half-maximal activity concentration (AC50) was 12.6 µM [rising, single point].

For `CCOc1ccccc1NC(=O)Cn1nnc(C(=O)Nc2ccc(C)cc2)c1N`, the AC50 was 3.98 µM [rising, partial curve].

For the compound `CCOCCCNC(=O)c1cn(C)c(=O)c2cc(OC)c(OC)cc12`, the AC50 is 2 µM [rising, partial curve].

Take `Cn1c(SCC(=O)N2c3ccccc3Sc3ccc(Cl)cc32)nnc1-c1ccco1`: the AC50 is 10 µM [rising, single point].

For `Cc1c(-c2ccc(F)cc2)nc(N)c(C#N)c1-c1ccco1`, the AC50 was 5.01 µM [rising, partial curve].

`COCCn1c(=O)c(-c2ccccc2)nc2cnc(Oc3ccccc3)nc21`: the AC50 was 15.8 µM [rising, single point].

Regarding `O=c1sc(N2CCN(c3ccccc3F)CC2)nc2ccsc12`, the AC50 was 15.8 µM [rising, partial curve].

With `Cc1ccc(S(=O)(=O)c2c(N)n(NC(=O)C3CC3)c3nc4ccccc4nc23)cc1`, the AC50 was 12.6 µM [rising, single point].

As to `CCCc1nnc(SCC(=O)Nc2ccc(OCC)cc2)n1N`, the AC50 was 3.16 µM [falling, single point].

As to `CCOC(=O)C1CCN(Cc2ccc(O)c(OC)c2)CC1`, the AC50 is 0.0631 µM [rising, full curve].

Consider `Nc1c(NCc2ccccc2F)c(=O)[nH]c(=O)n1Cc1ccccc1`, for which the AC50 is 12.6 µM [rising, single point].

On to `c1ccc(-c2csc3ncnc(NCCN4CCOCC4)c23)cc1`, for which the AC50 is 0.00316 µM [rising, full curve, poor fit].

As for `O=C(O)COc1ccc(S(=O)(=O)c2ccc(OCC(=O)O)cc2)cc1`, the AC50 is 0.501 µM [rising, partial curve].

Consider `Cn1c(=O)c2c(nc(Br)n2CCc2ccccc2)n(C)c1=O`, for which the AC50 was 10 µM [rising, single point].

`Cc1cccc(-c2c3c(=O)n(C)c(=O)n(C)c3cn2CCO)c1`: the AC50 was 0.1 µM [falling, full curve, poor fit].

Turning to `Cc1occc1-c1nnc(SCC(=O)Nc2ccccc2)n1CCc1ccccc1`, the half-maximal activity concentration (AC50) was 12.6 µM [falling, single point].

As to `Cn1c(=O)[nH]c2cc3ccccc3cc21`, the half-maximal activity concentration (AC50) was 0.398 µM [falling, full curve].

With `COC(=O)c1ccc(Cn2cnc3c(cnn3-c3ccc(Cl)cc3)c2=O)o1`, the concentration at half-maximal activity (AC50) was 3.16 µM [rising, full curve].

In the case of `COc1cc(SC)ccc1C(=O)NC1CCCCC1`, the AC50 was 1 µM [falling, partial curve, poor fit].

Regarding `COCCNc1ncnc2ccc(-c3ccccc3C(F)(F)F)cc12`, the half-maximal activity concentration (AC50) is 3.16 µM [rising, full curve, poor fit].

`COC(=O)c1ccc(CSc2nc(-c3ccco3)cc(C(F)(F)F)n2)o1`: the AC50 is 10 µM [rising, partial curve].

Consider `Nc1nc(-c2c[nH]c3ccccc23)cs1`, for which the AC50 was 0.251 µM [falling, full curve, poor fit].

As to `CCc1c(C)nc(SCC(=O)CC(=O)OC(C)C)c(C#N)c1C`, the half-maximal activity concentration (AC50) is 12.6 µM [rising, single point].

As for `CCOC(=O)c1coc(CNC(=O)c2c(C)oc3c2CCCC3)c1`, the AC50 was 20 µM [rising, single point].

In the case of `COCCNC(=O)C1CC(c2cccc(OC)c2)=NO1` (centres undefined), the AC50 is 7.94 µM [falling, partial curve, poor fit].

`COc1ccc2ccccc2c1CN1CCN(C(=O)c2ccccc2)CC1`: the AC50 was 0.0126 µM [falling, partial curve, poor fit].

On to `Cc1ccc2c(CC(=O)Nc3sccc3C(N)=O)coc2c1`, for which the AC50 is 10 µM [rising, partial curve].

Consider `CCOC(=O)c1cnn2c(C)cc(-c3ccc(F)cc3)nc12`, for which the concentration at half-maximal activity (AC50) is 12.6 µM [rising, partial curve].

Regarding `CCOC(=O)c1c(COc2ccccc2)oc2ccc(O)cc12`, the AC50 is 25.1 µM [falling, single point].

Consider `COc1cccc(Cn2c(=O)c(-c3ccc(F)cc3)nc3cnc(N(C)C)nc32)c1`, for which the half-maximal activity concentration (AC50) is 1 µM [rising, full curve].

Consider `O=C(NCc1ccccc1)c1cc(-c2cccs2)on1`, for which the concentration at half-maximal activity (AC50) was 25.1 µM [falling, partial curve, poor fit].

For the compound `CC1CCC(NC(=O)Cn2c(=O)[nH]c3ccsc3c2=O)CC1` (centres undefined), the AC50 was 0.794 µM [rising, full curve, poor fit].

Turning to `Cc1cccc(C(=O)OCc2cc3ccccc3[nH]c2=O)c1`, the AC50 is 25.1 µM [rising, single point].

With `COc1ccc(-c2ccc(Nc3ccc(S(=O)(=O)N4CCCC4)cc3)nn2)cc1OC`, the AC50 is 6.31 µM [rising, partial curve].

`C=CCn1c(SCc2cc(=O)n3ccsc3n2)nc2sc(C)c(C)c2c1=O`: the AC50 is 0.316 µM [rising, full curve, poor fit].

On to `CN(Cc1ccco1)c1ccnc(-c2cccc(NS(C)(=O)=O)c2)n1`, for which the concentration at half-maximal activity (AC50) is 7.94 µM [rising, partial curve].

Consider `Cc1cc(C)n(-c2ccc(C(=O)OCC(=O)NCc3ccco3)cc2)n1`, for which the AC50 was 25.1 µM [rising, single point].
